Data reported in PubChem BioAssay.
Inconclusive results, whose numbers are uncertain, are shown with a selection of clear calls. For some assays here: Potencies of inconclusive entries are doubtful fits and often do not repeat. Activity calls are given as the source filed them. Unless noted, no cut-off is given here; in the data, nearly all actives have AC50 up to about 26 µM.

Sequences of proteins named here, by UniProt entry; tags and fusion partners are left off.
UniProt P08183, whole entry, looked up: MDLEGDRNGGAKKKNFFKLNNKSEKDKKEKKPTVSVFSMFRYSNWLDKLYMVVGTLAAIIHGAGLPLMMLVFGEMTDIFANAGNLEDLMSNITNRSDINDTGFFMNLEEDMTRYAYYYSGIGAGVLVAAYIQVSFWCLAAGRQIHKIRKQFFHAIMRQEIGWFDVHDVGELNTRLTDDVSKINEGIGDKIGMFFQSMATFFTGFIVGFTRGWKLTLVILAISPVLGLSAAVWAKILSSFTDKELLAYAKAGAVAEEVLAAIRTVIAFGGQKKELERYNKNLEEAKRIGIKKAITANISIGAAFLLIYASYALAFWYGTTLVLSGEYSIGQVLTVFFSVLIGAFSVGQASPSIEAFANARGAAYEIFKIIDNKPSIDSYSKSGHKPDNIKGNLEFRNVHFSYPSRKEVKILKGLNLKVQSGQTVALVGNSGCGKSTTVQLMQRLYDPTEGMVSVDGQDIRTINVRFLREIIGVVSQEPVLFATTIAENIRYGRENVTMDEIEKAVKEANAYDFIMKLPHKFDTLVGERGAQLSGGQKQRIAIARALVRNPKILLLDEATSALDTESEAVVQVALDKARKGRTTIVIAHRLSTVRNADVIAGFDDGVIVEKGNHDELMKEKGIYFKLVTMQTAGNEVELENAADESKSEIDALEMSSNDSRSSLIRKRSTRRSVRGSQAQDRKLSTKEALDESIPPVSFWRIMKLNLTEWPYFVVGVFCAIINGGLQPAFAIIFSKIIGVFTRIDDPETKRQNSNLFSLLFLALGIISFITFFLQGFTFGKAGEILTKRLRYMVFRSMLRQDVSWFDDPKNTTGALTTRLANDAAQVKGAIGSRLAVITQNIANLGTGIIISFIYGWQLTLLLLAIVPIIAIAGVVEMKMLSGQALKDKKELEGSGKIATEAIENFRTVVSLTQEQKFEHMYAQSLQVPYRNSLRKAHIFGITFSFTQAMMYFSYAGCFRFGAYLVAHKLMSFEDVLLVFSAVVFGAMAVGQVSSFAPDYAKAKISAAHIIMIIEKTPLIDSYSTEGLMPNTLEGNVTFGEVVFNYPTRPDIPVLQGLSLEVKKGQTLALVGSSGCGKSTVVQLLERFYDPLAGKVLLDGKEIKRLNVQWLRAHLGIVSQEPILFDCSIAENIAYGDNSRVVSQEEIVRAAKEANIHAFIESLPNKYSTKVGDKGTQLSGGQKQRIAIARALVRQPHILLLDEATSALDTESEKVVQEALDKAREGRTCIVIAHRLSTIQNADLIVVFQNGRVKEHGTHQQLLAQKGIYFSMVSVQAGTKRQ

Assays:
[1] = growth inhibition of DIPG glioma cells, dose response, cell-based, SU-DIPG-XVII, MIPE5.0, CellTiter-Glo, qHTS (AID 1347060); settings: SU-DIPG-XVII viability, CellTiter-Glo ATP luminescence;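 for AC50: cells exposed to compound for 48 hours before viability readout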
[2] = growth inhibition of DIPG glioma cells, dose response, cell-based, SU-DIPG-XIII, MIPE4.0, CellTiter-Glo, qHTS (AID 1347061; cut-off not given, nearly all actives have AC50 up to about 37 µM;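 note: cells exposed to compound for 48 hours before readout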); settings: SU-DIPG-XIII viability, CellTiter-Glo ATP luminescence
[3] = growth inhibition of DIPG glioma cells, dose response, cell-based, JHH-DIPG-1, MIPE4.0, CellTiter-Glo, qHTS (AID 1347062; cut-off not given, nearly all actives have AC50 up to about 27 µM;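 for AC50: cells exposed to compound for two days before readout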); settings: JHH-DIPG-1 viability, CellTiter-Glo ATP luminescence
[4] = growth inhibition of DIPG glioma cells, dose response, cell-based, SU-DIPG-IV, MIPE4.0, CellTiter-Glo, qHTS (AID 1347063; cut-off not given, nearly all actives have AC50 up to about 30 µM;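 note: compound exposure lasted 48 hours before the viability readout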); settings: SU-DIPG-IV viability, CellTiter-Glo ATP luminescence
[5] = growth inhibition of DIPG glioma cells, dose response, cell-based, SU-DIPG-XIII, MIPE5.0, CellTiter-Glo, qHTS (AID 1347064; cut-off not given, nearly all actives have AC50 up to about 23 µM;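 for AC50: cells exposed to compound for 48 hours before the viability read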); settings: SU-DIPG-XIII viability, CellTiter-Glo ATP luminescence
[6] = viability loss in pontine glioma line – cell-based, SU-DIPG-XXV, MIPE5.0, CellTiter-Glo, qHTS, dose response (AID 1347065); settings: CellTiter-Glo ATP luminescence;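 note: cells exposed to compound for 48 hours before ATP readout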
[7] = SU-DIPG-XXV glioma cell viability, MIPE5.0 library, qHTS (AID 1347068; cut-off not given, nearly all actives have IC50 up to about 30 µM;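 for IC50: cells exposed to compound for 48 hours before viability readout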)
[8] = target: ATP-dependent translocase ABCB1 (Homo sapiens) (UniProt P08183); assay: MDR1 (ABCB1) efflux transporter inhibition, cell-based (AID 377; in the data active = fluorescence slope change above about 50%; inconclusive = mostly about 31% to 49%); settings: MDR1-expressing cells, fluorescent substrate accumulation slope; stronger effect = higher value; concentration not given here
[9] = inhibitors of polyQ aggregate elongation, biochemical, solid-phase synthetic aggregates, QA3 (AID 1585; call rule not given here); settings: biotin-polyQ incorporation, at 100 µM, stronger effect = higher value
[10] = polyglutamine aggregation reduction, turbidity readout, qthio, single concentration 25 µM screen (AID 1588; call rule not given here); settings: at 25 µM, stronger effect = lower value
[11] = protection of motor neurons from glutamate death, cell-based, TUNEL DNA degradation staining, MNGlu (AID 1594; call rule not given here); settings: glutamate-induced death, at 1 µM, stronger effect = higher value
[12] = enhancers of SMN2 over SMN1 splicing, cell-based, SMN2/SMN1 luciferase reporters (AID 1598; call rule not given here); settings: SMN2 vs SMN1 luciferase splicing reporter cells; at 10 µM; stronger effect = higher value
[13] = JHH-DIPG-1 glioma cell viability, MIPE5.0 library, CellTiter-Glo luminescence, qHTS (AID 1347067); settings: JHH-DIPG-1 glioma viability, CellTiter-Glo ATP luminescence;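 note: cells exposed to compound for 48 hours before readout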
[14] = SU-DIPG-VI glioma cell viability, MIPE4.0 library, CellTiter-Glo luminescence, qHTS (AID 1347066; cut-off not given, nearly all actives have AC50 up to about 30 µM;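 note: cells exposed to compound for 48 hours before readout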); settings: CellTiter-Glo ATP luminescence

NC(=O)[C@@H](CCC(F)(F)F)N(Cc1ccc(-c2ncon2)cc1F)S(=O)(=O)c1ccc(Cl)cc1
outcome [1]: inactive
AC50 [2]: inconclusive: 5.9 µM [cytotoxic]
AC50 [3]: inconclusive: 0.0662 µM [cytotoxic]
AC50 [4]: inconclusive: 18.7 µM [cytotoxic]
AC50 [5]: inconclusive: 0.00118 µM
AC50 [6]: inconclusive: 0.0468 µM [cytotoxic]
IC50 [7]: inconclusive: 33.2 µM [cytotoxic]

O=c1ccn([C@@H]2O[C@H](CO)[C@@H](O)[C@@H]2F)c(=O)[nH]1
outcome [1]: inactive
AC50 [2]: inconclusive: 9.35 µM [cytotoxic]
AC50 [3]: inconclusive: 0.00209 µM [cytotoxic]
outcome [4]: inactive
AC50 [5]: inconclusive: 6.61 µM
outcome [6]: inactive
outcome [7]: inactive

Cc1cc2cc3c(C)cc(=O)oc3c(C)c2o1
fluorescence slope change [8]: inactive: 18.1%
inhibition [9]: inconclusive: -16%
aggregation (% of control) [10]: inconclusive: 98.6%
protection [11]: inconclusive: 41%
SMN2/SMN1 luciferase ratio [12]: inconclusive: 1.18
outcome [1]: inactive
AC50 [2]: inconclusive: 16.6 µM [cytotoxic]
AC50 [3]: inconclusive: 29.6 µM [cytotoxic]
AC50 [4]: active: 20.9 µM
outcome [5]: inactive
outcome [6]: inactive
outcome [13]: inactive

NC(=O)c1ccc2nc(-c3ccc(Oc4ccc(Cl)cc4)cc3)[nH]c2c1
AC50 [1]: inconclusive: 18.6 µM [cytotoxic]
AC50 [2]: inconclusive: 10.5 µM [cytotoxic]
AC50 [3]: inconclusive: 0.469 µM [cytotoxic]
AC50 [4]: inconclusive: 1.32 µM [cytotoxic]
AC50 [5]: inconclusive: 18.6 µM [cytotoxic]
AC50 [6]: inconclusive: 33.2 µM [cytotoxic]
AC50 [13]: inconclusive: 2.09 µM [cytotoxic]
outcome [7]: inactive

CC(C[N+](C)(C)C)OC(N)=O (centres undefined)
inhibition [9]: inconclusive: 3.13%
aggregation (% of control) [10]: inconclusive: 107%
protection [11]: inconclusive: 1%
SMN2/SMN1 luciferase ratio [12]: inconclusive: 1.08
outcome [1]: inactive
outcome [2]: inactive
outcome [3]: inactive
AC50 [4]: inconclusive: 0.0118 µM [cytotoxic]
AC50 [5]: inconclusive: 11.8 µM [cytotoxic]
AC50 [6]: inconclusive: 14.8 µM [cytotoxic]

Cc1ccc(NC(=O)c2cccc(C(C)(C)C#N)c2)cc1Nc1ccc2ncn(C)c(=O)c2c1
AC50 [1]: active: 2.09 µM
AC50 [2]: active: 4.18 µM
AC50 [3]: active: 5.9 µM
AC50 [4]: inconclusive: 18.7 µM [cytotoxic]
AC50 [5]: active: 1.48 µM
AC50 [6]: active: 7.42 µM
AC50 [13]: active: 0.934 µM
IC50 [7]: inconclusive: 16.6 µM [cytotoxic]

CC(C)C(=O)Nc1ncc(-c2cc(C(F)F)nn2-c2c(Cl)cccc2Cl)s1
AC50 [1]: inconclusive: 23.5 µM [cytotoxic]
AC50 [2]: inconclusive: 20.9 µM [cytotoxic]
AC50 [3]: inconclusive: 37.2 µM [cytotoxic]
AC50 [4]: inconclusive: 13.2 µM [cytotoxic]
AC50 [5]: inconclusive: 20.9 µM [cytotoxic]
AC50 [6]: inconclusive: 23.5 µM [cytotoxic]
AC50 [13]: inconclusive: 23.5 µM [cytotoxic]
IC50 [7]: inconclusive: 23.5 µM [cytotoxic]

Nc1nc(N)c2nc(CNc3ccc(C(=O)NC(CCC(=O)O)C(=O)O)cc3)cnc2n1 (centres undefined)
AC50 [1]: inconclusive: 0.0263 µM [cytotoxic]
AC50 [2]: active: 11.8 µM
AC50 [3]: inconclusive: 0.166 µM [cytotoxic]
AC50 [4]: inconclusive: 37.2 µM [cytotoxic]
AC50 [5]: inconclusive: 0.00235 µM [cytotoxic]
AC50 [6]: inconclusive: 0.0118 µM [cytotoxic]
IC50 [7]: inconclusive: 9.34 µM

COc1cc2c(cc1OC)CN(CCc1ccc(NC(=O)c3cc(OC)c(OC)cc3NC(=O)c3cnc4ccccc4c3)cc1)CC2
AC50 [1]: inconclusive: 1.18 µM [cytotoxic]
AC50 [2]: active: 20.9 µM
outcome [3]: inactive
AC50 [4]: inconclusive: 20.9 µM [cytotoxic]
AC50 [5]: inconclusive: 10.5 µM [cytotoxic]
AC50 [14]: inconclusive: 0.148 µM [cytotoxic]

COc1cc([C@H]2Oc3cc([C@H]4Oc5cc(O)cc(O)c5C(=O)[C@@H]4O)ccc3O[C@@H]2CO)ccc1O
outcome [1]: inactive
outcome [2]: inactive
outcome [3]: inactive
AC50 [4]: inconclusive: 14.8 µM [cytotoxic]
AC50 [5]: inconclusive: 5.9 µM [cytotoxic]
AC50 [6]: inconclusive: 29.5 µM [cytotoxic]
AC50 [13]: inconclusive: 16.6 µM [cytotoxic]
outcome [7]: inactive

CC1(C)O[C@@H]2C[C@H]3[C@@H]4CCC5=CC(=O)C=C[C@]5(C)[C@@]4(F)[C@@H](O)C[C@]3(C)[C@]2(C(=O)CO)O1
outcome [1]: inactive
outcome [2]: inactive
AC50 [3]: inconclusive: 0.0264 µM
outcome [4]: inactive
outcome [5]: inactive
outcome [6]: inactive
outcome [7]: inactive

CCOc1ccc(Cc2cc([C@@H]3O[C@H](CO)[C@@H](O)[C@H](O)[C@H]3O)ccc2Cl)cc1
outcome [1]: inactive
AC50 [2]: inconclusive: 0.0935 µM
AC50 [3]: inconclusive: 26.4 µM [cytotoxic]
AC50 [4]: inconclusive: 23.5 µM [cytotoxic]
outcome [5]: inactive
outcome [14]: inactive
outcome [13]: inactive

CCc1ccc(/C=C2/SC(=S)NC2=O)cc1
AC50 [1]: inconclusive: 18.6 µM [cytotoxic]
outcome [2]: inactive
outcome [3]: inactive
outcome [4]: inactive
outcome [5]: inactive
outcome [6]: inactive
outcome [7]: inactive

O=c1c(O)c(-c2ccc(O)cc2O)oc2cc(O)cc(O)c12
inhibition [9]: inconclusive: -72.4%
aggregation (% of control) [10]: inconclusive: 61.7%
SMN2/SMN1 luciferase ratio [12]: inconclusive: 0.98
outcome [1]: inactive
outcome [2]: inactive
outcome [3]: inactive
outcome [4]: inactive
outcome [5]: inactive
AC50 [6]: inconclusive: 11.8 µM [cytotoxic]
outcome [13]: inactive
outcome [7]: inactive

CC1(C)CNc2cc(NC(=O)c3cccnc3NCc3ccncc3)ccc21
AC50 [1]: active: 20.9 µM
AC50 [2]: inconclusive: 0.105 µM [cytotoxic]
outcome [3]: inactive
AC50 [4]: inconclusive: 10.5 µM [cytotoxic]
AC50 [5]: inconclusive: 3.72 µM [cytotoxic]
AC50 [14]: inconclusive: 0.00372 µM [cytotoxic]
AC50 [13]: inconclusive: 20.9 µM [cytotoxic]

Nc1cc(C(Cl)=C(Cl)Cl)c(S(N)(=O)=O)cc1S(N)(=O)=O
AC50 [1]: inconclusive: 0.148 µM [cytotoxic]
AC50 [2]: inconclusive: 0.0187 µM [cytotoxic]
outcome [3]: inactive
outcome [4]: inactive
outcome [5]: inactive
outcome [14]: inactive

CC(=O)OCCN1C(=O)c2c(C)nc3ccc(S(=O)(=O)N4CCOCC4)cc3c2C1=O
outcome [1]: inactive
outcome [2]: inactive
outcome [3]: inactive
AC50 [4]: inconclusive: 11.8 µM [cytotoxic]
outcome [5]: inactive
outcome [6]: inactive
outcome [7]: inactive

Cc1ccc2nc(NC(=O)CSc3nc4c(c(=O)n3-c3ccccc3)SCC4)sc2c1
AC50 [1]: inconclusive: 33.2 µM [cytotoxic]
AC50 [2]: inconclusive: 9.35 µM [cytotoxic]
AC50 [3]: inconclusive: 14.8 µM [cytotoxic]
AC50 [4]: inconclusive: 7.43 µM [cytotoxic]
outcome [5]: inactive
AC50 [6]: inconclusive: 0.00166 µM [cytotoxic]
outcome [7]: inactive

COc1cc2c(cc1OC)CC(=O)N(CCCN(C)C[C@H]1Cc3cc(OC)c(OC)cc31)CC2
outcome [1]: inactive
AC50 [2]: inconclusive: 18.7 µM [cytotoxic]
outcome [3]: inactive
AC50 [4]: inconclusive: 23.5 µM [cytotoxic]
outcome [5]: inactive
outcome [14]: inactive

CN[C@@H](C)C(=O)N[C@H]1CCCC[C@H]2CC[C@@H](C(=O)N[C@@H](c3ccccc3)c3cn(CCCCc4ccc(CCCCn5cc([C@@H](NC(=O)[C@@H]6CC[C@@H]7CCCC[C@H](NC(=O)[C@H](C)NC)C(=O)N76)c6ccccc6)nn5)cc4)nn3)N2C1=O
outcome [1]: inactive
outcome [2]: inactive
AC50 [3]: inconclusive: 33.2 µM [cytotoxic]
AC50 [4]: inconclusive: 1.18 µM [cytotoxic]
outcome [5]: inactive
AC50 [6]: inconclusive: 0.166 µM
IC50 [7]: inconclusive: 1.18 µM

NC(=O)c1c(OCc2c(F)cc(Br)cc2F)nsc1NC(=O)NCCCCN1CCCC1
AC50 [1]: active: 4.68 µM
AC50 [2]: active: 6.62 µM
AC50 [3]: inconclusive: 20.9 µM [cytotoxic]
AC50 [4]: inconclusive: 33.2 µM [cytotoxic]
AC50 [5]: active: 3.32 µM
AC50 [14]: inconclusive: 33.2 µM [cytotoxic]

N#C/C(=C(/N)Sc1ccc(N)cc1)c1ccccc1C(F)(F)F
AC50 [1]: inconclusive: 9.34 µM [cytotoxic]
AC50 [2]: active: 18.7 µM
AC50 [3]: inconclusive: 2.96 µM [cytotoxic]
AC50 [4]: inconclusive: 13.2 µM [cytotoxic]
AC50 [5]: inconclusive: 0.372 µM [cytotoxic]
outcome [6]: inactive
AC50 [13]: inconclusive: 2.95 µM [cytotoxic]
outcome [7]: inactive

OC[C@@H](O)[C@@H](O)[C@H](O)[C@@H](O)CO
outcome [1]: inactive
outcome [2]: inactive
outcome [3]: inactive
AC50 [4]: inconclusive: 8.33 µM
outcome [5]: inactive
outcome [6]: inactive
outcome [7]: inactive

O=C(Nc1cccc(Br)c1)c1cccc(S(=O)(=O)N2CCCCCC2)c1
AC50 [1]: inconclusive: 0.00118 µM
AC50 [2]: inconclusive: 23.5 µM [cytotoxic]
AC50 [3]: inconclusive: 8.33 µM [cytotoxic]
AC50 [4]: inconclusive: 13.2 µM [cytotoxic]
AC50 [5]: inconclusive: 37.2 µM [cytotoxic]
AC50 [6]: inconclusive: 37.2 µM [cytotoxic]
AC50 [13]: inconclusive: 26.3 µM [cytotoxic]
IC50 [7]: inconclusive: 16.6 µM [cytotoxic]

Cc1cc(Nc2nc(N[C@@H](C)c3ncc(F)cn3)ncc2Cl)n[nH]1
AC50 [1]: inconclusive: 0.934 µM [cytotoxic]
AC50 [2]: active: 16.6 µM
AC50 [3]: active: 9.35 µM
AC50 [4]: active: 13.2 µM
AC50 [5]: active: 1.48 µM
AC50 [14]: active: 9.35 µM

CCN(CC)CCCCNc1ncc2cc(-c3cc(OC)cc(OC)c3)c(NC(=O)NC(C)(C)C)nc2n1
AC50 [1]: active: 0.468 µM
AC50 [2]: inconclusive: 23.5 µM [cytotoxic]
AC50 [3]: active: 26.4 µM
AC50 [4]: active: 16.6 µM
AC50 [5]: active: 0.372 µM
AC50 [14]: inconclusive: 37.2 µM [cytotoxic]
